{"sequences": {"note": "Protein sequences, listed by entry. Tags and fused reporters are not part of them. Lines headed by an entry give the natural chain unless they say otherwise; changes in a name come on top.", "UniProt O60566": "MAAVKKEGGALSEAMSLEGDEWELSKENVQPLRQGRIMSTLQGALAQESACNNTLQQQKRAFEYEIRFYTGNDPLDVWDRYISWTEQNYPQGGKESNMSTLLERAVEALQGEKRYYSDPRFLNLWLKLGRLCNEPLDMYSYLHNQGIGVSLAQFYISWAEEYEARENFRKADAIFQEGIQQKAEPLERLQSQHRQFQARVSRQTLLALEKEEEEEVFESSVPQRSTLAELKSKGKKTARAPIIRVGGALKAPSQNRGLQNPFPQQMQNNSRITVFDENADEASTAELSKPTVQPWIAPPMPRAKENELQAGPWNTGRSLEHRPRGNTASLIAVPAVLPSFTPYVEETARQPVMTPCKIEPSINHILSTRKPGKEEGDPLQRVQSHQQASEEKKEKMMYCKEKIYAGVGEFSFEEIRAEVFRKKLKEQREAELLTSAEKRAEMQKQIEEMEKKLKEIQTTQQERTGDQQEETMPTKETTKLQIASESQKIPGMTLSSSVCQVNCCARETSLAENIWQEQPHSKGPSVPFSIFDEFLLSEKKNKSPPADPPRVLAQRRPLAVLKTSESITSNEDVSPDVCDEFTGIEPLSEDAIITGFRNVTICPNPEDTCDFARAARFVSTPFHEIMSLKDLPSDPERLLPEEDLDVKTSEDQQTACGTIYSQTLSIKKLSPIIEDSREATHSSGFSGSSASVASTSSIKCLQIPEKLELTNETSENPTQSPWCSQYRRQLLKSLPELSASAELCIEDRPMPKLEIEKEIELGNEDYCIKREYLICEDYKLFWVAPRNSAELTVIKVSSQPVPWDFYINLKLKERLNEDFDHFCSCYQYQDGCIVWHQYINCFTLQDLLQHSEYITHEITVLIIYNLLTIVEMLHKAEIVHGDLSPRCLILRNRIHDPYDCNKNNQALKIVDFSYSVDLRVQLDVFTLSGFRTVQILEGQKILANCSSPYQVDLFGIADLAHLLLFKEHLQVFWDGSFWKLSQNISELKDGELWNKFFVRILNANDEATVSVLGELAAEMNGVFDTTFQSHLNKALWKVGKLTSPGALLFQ", "UniProt P63010": "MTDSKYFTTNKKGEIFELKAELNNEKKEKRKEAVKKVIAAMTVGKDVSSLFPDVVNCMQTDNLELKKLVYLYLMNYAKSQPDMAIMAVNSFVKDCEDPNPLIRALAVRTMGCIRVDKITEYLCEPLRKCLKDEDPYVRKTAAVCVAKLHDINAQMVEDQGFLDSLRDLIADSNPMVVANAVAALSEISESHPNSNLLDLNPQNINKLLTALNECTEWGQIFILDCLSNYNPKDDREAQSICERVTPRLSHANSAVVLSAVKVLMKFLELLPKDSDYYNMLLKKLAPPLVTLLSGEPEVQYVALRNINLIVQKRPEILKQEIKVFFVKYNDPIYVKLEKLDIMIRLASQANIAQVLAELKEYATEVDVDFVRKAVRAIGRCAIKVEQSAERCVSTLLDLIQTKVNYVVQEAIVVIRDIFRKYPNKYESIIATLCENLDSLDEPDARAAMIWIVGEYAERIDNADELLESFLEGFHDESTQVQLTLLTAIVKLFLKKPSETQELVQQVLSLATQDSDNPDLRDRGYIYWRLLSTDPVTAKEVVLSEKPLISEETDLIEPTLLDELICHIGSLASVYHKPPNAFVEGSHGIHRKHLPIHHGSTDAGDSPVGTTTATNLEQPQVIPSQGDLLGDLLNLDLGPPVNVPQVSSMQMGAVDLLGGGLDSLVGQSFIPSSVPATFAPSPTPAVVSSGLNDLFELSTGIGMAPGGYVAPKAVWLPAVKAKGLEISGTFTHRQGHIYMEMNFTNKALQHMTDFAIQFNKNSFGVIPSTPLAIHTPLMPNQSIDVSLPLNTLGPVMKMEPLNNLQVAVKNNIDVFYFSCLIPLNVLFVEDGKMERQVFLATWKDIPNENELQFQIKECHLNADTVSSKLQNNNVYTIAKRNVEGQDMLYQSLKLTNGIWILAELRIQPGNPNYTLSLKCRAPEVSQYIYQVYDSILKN"}, "source": "paper PMC6443781", "biological_target": "Myc-BUBR1 ΔPhe + ΔD2 (full length) (human) (UniProt O60566)", "assay": "co-IP; 293FT cells transfected with GFP-AP2B1 and Myc-BUBR1 plasmids; anti-Myc-BUBR1 IP from total cell lysate, blotted with anti-Myc and anti-AP2B1 or anti-GFP", "note": "These are yes or no findings as the source states them, for the method shown. Binding seen in cells or lysates may run through a third protein. A result given as binding can be weak or reduced; the word gives no strength."}
{"substance": "GFP-AP2B1 full length (FL) (from UniProt P63010 1-937)", "values": [{"measurement": "binding", "result": "binds"}]}
